Measured values: patent US5837548A, “Treatment of inflammation by inhibition of lipid body formation” (Beth Israel Hospital, priority 1995, dated 1998)

Tested on: human neutrophils
Experiment: cis-unsaturated fatty acid-induced lipid body formation in human neutrophils (osmium staining, light microscopy enumeration)
Assay type: cell-based
Experimental: Neutrophils were purified from fresh human blood obtained by venipuncture from healthy adult volunteers and collected into acidified citrate. After addition of 6% dextran 70 (McGaw, Irvine, Calif.), RBCs were allowed to sediment for 1 hour at room temperature. The leukocyte-rich supernatant was overlaid onto an equal volume of Ficoll-Paque gradient (Piscataway, N.J.), and centrifuged at 400×g for 20 min. […] Residual RBCs were lysed with hypotonic saline.
Human leukocytes (10^6 cells/mL) were incubated with varying concentrations of arachidonic acid (AA), oleic acid (OA) or vehicle at 37° C. in a 5% CO2 /95% O2 atmosphere, and after 1 hour leukocytes (10^5 cells per slide) were cytocentrifuged (550 rpm, 5 min) onto glass slides. […]
Results were expressed as mean±SEM and were analyzed statistically by means of the analysis of variance followed by the Newman-Keuls-Student test with the level of significance set at p<0.05. Correlation coefficients were determined by linear regression, and correlation analysis was performed by Fisher's r to z transformation with the level of significance set at p<0.05. […]
Results are mean ± SEM from fifty consecutively counted neutrophils. […]
calculated after subtracting out the basal number of lipid bodies/PMN […]
± SEM from fifty consecutively counted neutrophils. […]
represented by an asterisk (*). Percent inhibition has been calculated […]

In the case of CN[C@@H]1C[C@H]2O[C@@](C)([C@@H]1OC)n1c3ccccc3c3c4c(c5c6ccccc6n2c5c31)C(=O)NC4 [staurosporine], the “inhibition of arachidonic acid-induced lipid body formation” value is reported as “significantly inhibited” and the “inhibition of oleic acid-induced lipid body formation” value is reported as “significantly inhibited”.
